Assay results: the supplement of paper PMC10849652
This is one part of the list. Residues, ends and D or L forms follow the SMILES beside them. *: point of attachment. Cbz = O=C(OCc1ccccc1)*

By UniProt entry, the sequences of proteins in these tests, tags left out. Where a name states a change or a piece, a line headed by the entry shows the natural chain unless it says otherwise.
UniProt Q96RR1: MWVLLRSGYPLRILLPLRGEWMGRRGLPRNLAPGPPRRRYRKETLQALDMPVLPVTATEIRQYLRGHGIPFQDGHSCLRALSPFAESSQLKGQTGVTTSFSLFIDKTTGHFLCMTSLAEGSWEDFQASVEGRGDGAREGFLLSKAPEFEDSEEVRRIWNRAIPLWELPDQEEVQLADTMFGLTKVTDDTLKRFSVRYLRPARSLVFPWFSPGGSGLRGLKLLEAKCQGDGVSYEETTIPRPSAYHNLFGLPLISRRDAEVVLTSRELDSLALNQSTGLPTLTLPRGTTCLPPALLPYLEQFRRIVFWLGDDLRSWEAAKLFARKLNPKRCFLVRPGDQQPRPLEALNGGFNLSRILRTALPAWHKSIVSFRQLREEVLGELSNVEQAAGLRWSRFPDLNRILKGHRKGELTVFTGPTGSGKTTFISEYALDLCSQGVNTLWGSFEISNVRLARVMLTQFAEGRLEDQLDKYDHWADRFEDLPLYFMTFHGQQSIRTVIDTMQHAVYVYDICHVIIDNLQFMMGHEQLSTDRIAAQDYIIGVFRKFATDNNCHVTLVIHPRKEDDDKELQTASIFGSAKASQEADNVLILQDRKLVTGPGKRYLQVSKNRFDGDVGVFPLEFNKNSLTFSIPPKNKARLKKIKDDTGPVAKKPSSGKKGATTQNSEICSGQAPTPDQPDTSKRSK
UniProt Q8N2K1: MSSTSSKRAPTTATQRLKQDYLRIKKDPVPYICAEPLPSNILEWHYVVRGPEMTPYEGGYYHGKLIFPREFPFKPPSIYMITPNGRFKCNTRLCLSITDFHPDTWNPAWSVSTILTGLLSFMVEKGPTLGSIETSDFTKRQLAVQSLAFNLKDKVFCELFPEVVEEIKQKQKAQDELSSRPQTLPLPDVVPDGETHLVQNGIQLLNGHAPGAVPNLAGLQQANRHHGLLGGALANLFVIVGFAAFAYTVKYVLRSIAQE
UniProt Q9H3M7: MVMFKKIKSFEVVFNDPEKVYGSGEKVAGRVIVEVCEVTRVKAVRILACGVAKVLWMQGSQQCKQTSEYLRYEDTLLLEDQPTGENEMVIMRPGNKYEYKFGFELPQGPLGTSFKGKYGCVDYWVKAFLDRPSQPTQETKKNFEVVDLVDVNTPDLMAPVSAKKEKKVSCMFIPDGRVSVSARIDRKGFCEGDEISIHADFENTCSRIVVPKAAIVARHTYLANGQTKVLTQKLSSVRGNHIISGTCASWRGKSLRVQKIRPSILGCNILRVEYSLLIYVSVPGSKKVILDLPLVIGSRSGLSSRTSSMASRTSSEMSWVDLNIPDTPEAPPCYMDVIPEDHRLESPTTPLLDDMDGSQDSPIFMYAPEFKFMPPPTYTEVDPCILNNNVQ
UniProt Q96ET8: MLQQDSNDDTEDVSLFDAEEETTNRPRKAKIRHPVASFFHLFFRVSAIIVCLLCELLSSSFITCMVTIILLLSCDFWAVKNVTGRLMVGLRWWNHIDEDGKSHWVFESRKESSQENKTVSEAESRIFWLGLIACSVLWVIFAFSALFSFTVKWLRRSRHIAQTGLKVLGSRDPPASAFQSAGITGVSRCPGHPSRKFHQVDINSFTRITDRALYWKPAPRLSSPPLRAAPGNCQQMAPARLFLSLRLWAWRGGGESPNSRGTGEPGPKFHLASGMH
UniProt Q14157: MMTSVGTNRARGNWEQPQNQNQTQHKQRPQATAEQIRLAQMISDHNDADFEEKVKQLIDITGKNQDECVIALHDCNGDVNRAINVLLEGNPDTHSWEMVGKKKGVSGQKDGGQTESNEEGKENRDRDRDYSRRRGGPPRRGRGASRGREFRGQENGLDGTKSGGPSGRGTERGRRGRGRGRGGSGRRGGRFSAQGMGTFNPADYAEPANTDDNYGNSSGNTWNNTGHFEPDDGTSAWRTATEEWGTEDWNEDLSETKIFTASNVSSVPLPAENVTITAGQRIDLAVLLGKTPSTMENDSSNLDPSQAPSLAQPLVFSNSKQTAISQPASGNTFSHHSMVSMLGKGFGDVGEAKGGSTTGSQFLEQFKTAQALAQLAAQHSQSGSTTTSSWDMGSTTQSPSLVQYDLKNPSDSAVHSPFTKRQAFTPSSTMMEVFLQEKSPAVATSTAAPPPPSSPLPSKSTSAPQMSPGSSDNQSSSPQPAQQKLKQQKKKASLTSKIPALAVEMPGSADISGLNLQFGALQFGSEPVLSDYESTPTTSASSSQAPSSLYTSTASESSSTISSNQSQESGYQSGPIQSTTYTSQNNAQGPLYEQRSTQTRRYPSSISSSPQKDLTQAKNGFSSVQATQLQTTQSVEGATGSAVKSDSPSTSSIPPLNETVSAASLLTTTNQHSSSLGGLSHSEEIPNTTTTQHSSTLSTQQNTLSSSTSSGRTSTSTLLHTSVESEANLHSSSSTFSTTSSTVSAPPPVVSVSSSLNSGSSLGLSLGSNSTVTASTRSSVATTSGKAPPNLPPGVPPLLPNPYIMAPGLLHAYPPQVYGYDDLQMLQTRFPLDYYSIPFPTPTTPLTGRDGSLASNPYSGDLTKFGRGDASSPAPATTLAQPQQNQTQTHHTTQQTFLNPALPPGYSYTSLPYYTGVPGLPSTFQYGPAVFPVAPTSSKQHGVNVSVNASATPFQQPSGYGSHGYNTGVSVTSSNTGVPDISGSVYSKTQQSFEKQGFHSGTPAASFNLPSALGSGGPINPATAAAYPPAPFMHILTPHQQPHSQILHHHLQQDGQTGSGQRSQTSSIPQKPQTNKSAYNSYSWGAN
UniProt A6NHL2: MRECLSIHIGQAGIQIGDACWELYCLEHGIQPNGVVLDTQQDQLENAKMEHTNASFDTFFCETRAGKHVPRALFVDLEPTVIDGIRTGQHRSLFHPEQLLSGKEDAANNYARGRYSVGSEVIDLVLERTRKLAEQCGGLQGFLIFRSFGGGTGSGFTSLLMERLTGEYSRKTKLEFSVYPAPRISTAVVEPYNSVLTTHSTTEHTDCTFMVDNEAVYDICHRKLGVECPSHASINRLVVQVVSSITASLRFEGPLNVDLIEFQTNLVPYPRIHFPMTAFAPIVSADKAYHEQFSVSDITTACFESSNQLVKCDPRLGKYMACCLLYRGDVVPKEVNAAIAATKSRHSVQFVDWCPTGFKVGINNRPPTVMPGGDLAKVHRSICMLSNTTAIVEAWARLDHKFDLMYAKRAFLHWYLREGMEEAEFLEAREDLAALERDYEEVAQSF
UniProt Q9NX01: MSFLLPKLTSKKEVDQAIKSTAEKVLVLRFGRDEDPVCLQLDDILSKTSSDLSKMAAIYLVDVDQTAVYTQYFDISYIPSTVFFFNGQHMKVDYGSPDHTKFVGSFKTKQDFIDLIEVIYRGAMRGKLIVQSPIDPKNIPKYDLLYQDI
UniProt Q9UNY4: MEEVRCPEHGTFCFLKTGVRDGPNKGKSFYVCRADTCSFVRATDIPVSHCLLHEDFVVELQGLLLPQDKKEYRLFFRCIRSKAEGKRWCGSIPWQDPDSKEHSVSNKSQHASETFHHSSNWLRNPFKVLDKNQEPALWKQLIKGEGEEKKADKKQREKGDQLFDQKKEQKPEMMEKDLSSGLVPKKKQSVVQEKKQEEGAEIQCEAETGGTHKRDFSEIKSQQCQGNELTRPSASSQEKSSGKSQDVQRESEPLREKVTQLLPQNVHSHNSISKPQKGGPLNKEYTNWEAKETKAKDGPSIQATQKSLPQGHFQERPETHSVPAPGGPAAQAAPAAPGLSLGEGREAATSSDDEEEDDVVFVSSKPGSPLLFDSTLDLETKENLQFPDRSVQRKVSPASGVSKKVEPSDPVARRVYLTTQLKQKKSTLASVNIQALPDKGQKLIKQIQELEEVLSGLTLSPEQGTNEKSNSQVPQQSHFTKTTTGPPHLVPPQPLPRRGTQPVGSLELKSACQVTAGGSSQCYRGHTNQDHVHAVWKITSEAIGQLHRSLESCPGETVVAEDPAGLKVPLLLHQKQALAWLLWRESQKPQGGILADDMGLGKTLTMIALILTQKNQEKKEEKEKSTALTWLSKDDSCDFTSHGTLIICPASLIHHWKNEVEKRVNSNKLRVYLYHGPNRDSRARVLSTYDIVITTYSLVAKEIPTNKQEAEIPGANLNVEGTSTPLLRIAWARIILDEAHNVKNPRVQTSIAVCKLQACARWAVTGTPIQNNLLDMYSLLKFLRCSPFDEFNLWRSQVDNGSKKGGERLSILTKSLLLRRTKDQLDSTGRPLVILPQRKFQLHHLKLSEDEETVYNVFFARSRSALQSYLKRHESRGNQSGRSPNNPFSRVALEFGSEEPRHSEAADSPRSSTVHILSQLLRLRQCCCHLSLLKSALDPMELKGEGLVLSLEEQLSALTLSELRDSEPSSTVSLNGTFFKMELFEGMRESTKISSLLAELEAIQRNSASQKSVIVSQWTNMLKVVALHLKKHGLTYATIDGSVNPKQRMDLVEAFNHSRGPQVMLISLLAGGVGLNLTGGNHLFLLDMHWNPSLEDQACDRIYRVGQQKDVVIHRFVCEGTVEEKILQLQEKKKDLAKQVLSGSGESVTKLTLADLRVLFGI
UniProt O95801: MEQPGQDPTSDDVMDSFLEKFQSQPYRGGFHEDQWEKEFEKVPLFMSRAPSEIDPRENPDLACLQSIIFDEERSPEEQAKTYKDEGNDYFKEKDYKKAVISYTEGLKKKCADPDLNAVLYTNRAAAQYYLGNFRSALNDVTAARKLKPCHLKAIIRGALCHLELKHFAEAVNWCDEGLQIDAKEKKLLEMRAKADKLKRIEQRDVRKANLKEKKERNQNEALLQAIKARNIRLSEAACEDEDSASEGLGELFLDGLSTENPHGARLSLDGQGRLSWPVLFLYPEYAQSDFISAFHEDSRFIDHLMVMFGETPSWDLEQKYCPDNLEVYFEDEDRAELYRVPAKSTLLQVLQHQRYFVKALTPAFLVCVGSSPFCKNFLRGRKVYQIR

What was measured:
Assay in all cases: log2 fold change, soluble protein after heating vs DMSO (PISA); higher = thermal stabilisation; K562 cells, 10 uM, 30 min; active = over 0.2 and 3.5 SD of the protein, either way, in both replicates (recomputed)
erlotinib = compound: C#Cc1cccc(Nc2ncnc3cc(OCCOC)c(OCCOC)cc23)c1 [erlotinib]
Outline: (§1)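 Aliquots of K562 cells (2×10^6 cells/mL) treated with 10 μM compound for 30 min were heated for 3 min over 48°C-58°C. After pooling and extraction in PBS with 0.5% NP-40 at 4°C, soluble protein from a 21,000xg, 90 min spin was quantified by TMTpro 16plex LC-MS/MS with channel sums equalised. Thermal stability is expressed against control samples, from duplicates, as a log2 fold change.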

[1] = compound: C/C(=N\NC(=O)C1=CC(=CC=C1)S(=O)(=O)N2CCOCC2)/C3=C(C=CC(=C3)Cl)O
Outline: as §1

[2] = compound: C1=CC(=C(C=C1Cl)C2=NC3=NC=CN=C3C(=N2)NC4=CC=NC=C4)F
Outline: as §1

[3] = compound: C1=CC(=CC=C1C2=NC3=C(N2)C=C(C=C3)C(=O)N)OC4=CC=C(C=C4)Cl
Outline: as §1

[4] = compound: C1=CC2=C(C=CC(=C2)/C=C\3/C(=O)NC(=NCC4=CC=CS4)S3)N=C1
Outline: as §1

[5] = compound: C1=CC2=NC=CN=C2C=C1/C=C/3\C(=O)NC(=O)S3
Outline: as §1

[6] = compound: C1=CC=C(C=C1)C2=NC(=C(N2)C3=CC=NC=C3)C4=CC(=C(C=C4)Cl)O
Outline: as §1

[7] = compound: C1=CC=C2C(=C1)C3=NNC4=CC=CC(=C43)C2=O
Outline: as §1

[8] = compound: C1CCN(C1)C(=O)NC2=CC=CC(=C2)NC3=NC=C(C(=N3)NCCC4=CN=CN4)Br
Outline: as §1

[9] = compound: C1CN(CCC1(CC2=CC=C(C=C2)Cl)N)C3=NC=NC4=C3C=CN4
Outline: as §1

ibrutinib = compound: C=CC(=O)N1CCC[C@@H](n2nc(-c3ccc(Oc4ccccc4)cc3)c3c(N)ncnc32)C1 [ibrutinib]
Outline: as §1

[10] = compound: CC(=O)c1cnc2ccc(-c3cc(Cl)c(O)c(Cl)c3)nc2c1N[C@H]1CC[C@H](CN(C)C)CC1
Outline: as §1

ralimetinib = compound: CC(C)(C)Cn1c(N)nc2ccc(-c3[nH]c(C(C)(C)C)nc3-c3ccc(F)cc3)nc21 [ralimetinib]
Outline: as §1

[11] = compound: CC(C)(O)CC(=O)NCCn1ccc2ncnc(Nc3ccc(Oc4cccc(C(F)(F)F)c4)c(Cl)c3)c21
Outline: as §1

[12] = compound: CC(C)C1=C2N=C(C=C(N2N=C1)NCC3=CC=CC=C3)NCCCCCCN
Outline: as §1

[13] = compound: CC(C)C[C@@H](C=O)NC(=O)[C@H](CC(C)C)NC(=O)[C@H](CC(C)C)NC(=O)OCc1ccccc1
Outline: as §1

[14] = compound: CC1=C(C(CC(=O)N1)C2=CC=C(C=C2)C(F)(F)F)C(=O)NC3=C(C=C4C(=C3)C=NN4)F
Outline: as §1

[15] = compound: CC1=C(C2=C(C=C1)C(=O)C3=CC=CC=C3N2CCCN)C
Outline: as §1

IRAK-1-4 Inhibitor I = compound: C1COCCN1CCN2C3=CC=CC=C3N=C2NC(=O)C4=CC(=CC=C4)[N+](=O)[O-] [IRAK-1-4 Inhibitor I]
Outline: as §1

pinometostat = compound: CC(C)N(C[C@H]1O[C@@H](n2cnc3c(N)ncnc32)[C@H](O)[C@@H]1O)[C@H]1C[C@@H](CCc2nc3cc(C(C)(C)C)ccc3[nH]2)C1 [pinometostat]
Outline: as §1

| Target | log2 fold change (erlotinib) | log2 fold change [1] | log2 fold change [2] | log2 fold change [3] | log2 fold change [4] | log2 fold change [5] | log2 fold change [6] | log2 fold change [7] | log2 fold change [8] | log2 fold change [9] | log2 fold change (ibrutinib) | log2 fold change [10] | log2 fold change (ralimetinib) | log2 fold change [11] | log2 fold change [12] | log2 fold change [13] | log2 fold change [14] | log2 fold change [15] | log2 fold change (IRAK-1-4 Inhibitor I) | log2 fold change (pinometostat) |
| --- | --- | --- | --- | --- | --- | --- | --- | --- | --- | --- | --- | --- | --- | --- | --- | --- | --- | --- | --- | --- |
| TWNK (UniProt Q96RR1) | inactive: -0.044 | inactive: -0.057 | inactive: 0.1 | inactive: 0.019 | inactive: 0.061 | inactive: 0.104 | inactive: 0.026 | inactive: -0.007 | inactive: -0.001 | inactive: -0.109 | inactive: -0.033 | inactive: -0.015 | inactive: 0.072 | inactive: -0.093 | inactive: 0.083 | inactive: 0.248 | inactive: 0.061 | inactive: 0.071 | – | – |
| UBE2J2 isoform 3 (UniProt Q8N2K1) | inactive: -0.096 | inactive: 0.154 | inactive: 0.026 | inactive: 0.07 | inactive: -0.057 | inactive: 0.126 | – | inactive: -0.039 | inactive: -0.145 | inactive: -0.015 | inactive: 0.086 | inactive: -0.017 | – | inactive: -0.019 | inactive: -0.185 | – | – | inactive: 0.02 | – | – |
| TXNIP (UniProt Q9H3M7) | inactive: 0.013 | inactive: 0.017 | inactive: 0.082 | inactive: 0.025 | inactive: 0.108 | inactive: 0.124 | inactive: 0.141 | inactive: 0.034 | inactive: 0.137 | inactive: 0.041 | inactive: 0.016 | inactive: -0.053 | inactive: 0.13 | inactive: 0.072 | inactive: -0.371 | inactive: 0.128 | – | active: -0.42 | inactive: 0.05 | inactive: -0.083 |
| TVP23C (UniProt Q96ET8) | inactive: -0.025 | inactive: 0.053 | – | inactive: -0.021 | inactive: 0.062 | – | – | inactive: -0.098 | inactive: 0.066 | inactive: -0.031 | – | inactive: 0.021 | – | – | inactive: 0.011 | – | – | inactive: 0.037 | – | – |
| UBAP2L isoform 5 (UniProt Q14157) | inactive: 0.057 | inactive: -0.005 | inactive: 0.005 | inactive: 0 | inactive: 0.013 | inactive: 0.015 | inactive: -0.029 | inactive: -0.03 | inactive: -0.007 | inactive: 0.026 | inactive: 0.04 | inactive: 0.017 | inactive: -0.007 | inactive: 0.003 | inactive: 0.053 | inactive: -0.012 | – | inactive: 0.068 | inactive: 0.053 | inactive: -0.032 |
| TUBAL3 (UniProt A6NHL2) | inactive: 0.092 | inactive: 0.096 | inactive: 0.099 | inactive: 0.018 | inactive: 0.048 | inactive: 0.004 | inactive: 0.031 | inactive: -0.034 | inactive: -0.046 | inactive: 0.145 | inactive: -0.005 | inactive: -0.039 | inactive: -0.044 | inactive: -0.047 | inactive: 0.003 | inactive: -0.102 | – | inactive: -0.094 | inactive: -0.046 | inactive: -0.108 |
| TXNL4B (UniProt Q9NX01) | inactive: 0.018 | inactive: 0.007 | – | inactive: -0.001 | inactive: 0.088 | inactive: 0.221 | inactive: 0.008 | inactive: 0.041 | inactive: -0.005 | inactive: -0.016 | inactive: -0.065 | inactive: -0.071 | inactive: -0.057 | – | inactive: -0.02 | inactive: 0.074 | – | inactive: 0.067 | inactive: 0.132 | inactive: -0.053 |
| TTF2 (UniProt Q9UNY4) | inactive: 0.184 | inactive: 0.063 | inactive: -0.238 | inactive: 0.144 | inactive: 0.18 | – | inactive: -0.055 | inactive: -0.036 | inactive: -0.14 | inactive: -0.232 | – | inactive: 0.061 | inactive: 0.08 | inactive: 0.067 | inactive: -0.091 | inactive: 0.115 | inactive: -0.05 | inactive: 0.117 | inactive: -0.04 | inactive: 0.18 |
| U2AF1L5 (UniProt P0DN76) | active: 1.29 | inactive: 0.031 | – | inactive: 0.022 | inactive: -0.159 | inactive: 0.096 | – | inactive: -0.005 | inactive: 0.153 | inactive: -0.207 | inactive: -0.032 | inactive: -0.389 | – | – | inactive: -0.19 | – | – | inactive: -0.067 | inactive: 0.042 | inactive: 0.014 |
| TTC4 (UniProt O95801) | inactive: 0.094 | inactive: 0.081 | inactive: 0.016 | inactive: 0.005 | inactive: 0.061 | inactive: -0.007 | inactive: 0.081 | inactive: 0.025 | inactive: -0.057 | inactive: -0.018 | inactive: -0.031 | inactive: -0.052 | inactive: 0.168 | inactive: -0.072 | inactive: -0.119 | inactive: 0.024 | – | inactive: 0 | inactive: -0.058 | inactive: -0.015 |
| UBA52 (UniProt P62987) | inactive: -0.113 | inactive: -0.266 | inactive: -0.659 | inactive: 0.093 | inactive: -0.311 | inactive: -0.024 | inactive: -0.029 | inactive: -0.082 | inactive: 0.165 | inactive: -0.04 | inactive: 0.091 | inactive: 0.21 | inactive: 0.139 | inactive: 0.107 | inactive: 0.044 | inactive: 0.147 | – | inactive: -0.532 | inactive: -0.098 | inactive: 0.358 |
